Measurements: article PMC4792581
These are yes or no findings as the source states them, for the method shown. Binding seen in cells or lysates may run through a third protein.

Protein sequences, listed by entry. Tags and fused reporters are not part of them. Lines headed by an entry give the natural chain unless they say otherwise; changes in a name come on top.
UniProt P10415: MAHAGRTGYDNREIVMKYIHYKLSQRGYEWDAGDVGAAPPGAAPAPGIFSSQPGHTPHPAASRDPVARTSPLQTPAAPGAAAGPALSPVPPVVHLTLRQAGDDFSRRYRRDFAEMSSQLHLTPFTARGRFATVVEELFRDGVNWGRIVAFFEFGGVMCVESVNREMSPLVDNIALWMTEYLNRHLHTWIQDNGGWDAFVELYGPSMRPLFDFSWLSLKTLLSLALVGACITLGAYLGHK

Target: Bcl2 with deleted BH3 domain (human) (UniProt P10415)
Experiment: co-IP; HEK293T transfected with vector, Bcl2 WT or mutant plasmids; MG132 (10 μM) for 6 h before lysis; lysates immunoprecipitated and blotted

B1: PPARα (peroxisome-proliferator-activated receptor α), endogenous (protein, UniProt Q07869 1-468)
chain: MVDTESPLCPLSPLEAGDLESPLSEEFLQEMGNIQEISQSIGEDSSGSFGFTEYQYLGSCPGSDGSVITDTLSPASSPSSVTYPVVPGSVDESPSGALNIECRICGDKASGYHYGVHACEGCKGFFRRTIRLKLVYDKCDRSCKIQKKNRNKCQYCRFHKCLSVGMSHNAIRFGRMPRSEKAKLKAEILTCEHDIEDSETADLKSLAKRIYEAYLKNFNMNKVKARVILSGKASNNPPFVIHDMETLCMAEKTLVAKLVANGIQNKEAEVRIFHCCQCTSVETVTELTEFAKAIPGFANLDLNDQVTLLKYGVYEAIFAMLSSVMNKDGMLVAYGNGFITREFLKSLRKPFCDIMEPKFDFAMKFNALELDDSDISLFVAAIICCGDRPGLLNVGHIEKMQEGIVHVLRLHLQSNHPDDIFLFPKLLQKMADLRQLVTEHAQLVQIIKKTESDAALHPLLQEIYRDMY
- binding: no binding
